The record followed here is PMC11699780.

Amino acid sequences for entries named in this document (tags omitted). Residues count along the entry.
UniProt P00750, residues 36-562: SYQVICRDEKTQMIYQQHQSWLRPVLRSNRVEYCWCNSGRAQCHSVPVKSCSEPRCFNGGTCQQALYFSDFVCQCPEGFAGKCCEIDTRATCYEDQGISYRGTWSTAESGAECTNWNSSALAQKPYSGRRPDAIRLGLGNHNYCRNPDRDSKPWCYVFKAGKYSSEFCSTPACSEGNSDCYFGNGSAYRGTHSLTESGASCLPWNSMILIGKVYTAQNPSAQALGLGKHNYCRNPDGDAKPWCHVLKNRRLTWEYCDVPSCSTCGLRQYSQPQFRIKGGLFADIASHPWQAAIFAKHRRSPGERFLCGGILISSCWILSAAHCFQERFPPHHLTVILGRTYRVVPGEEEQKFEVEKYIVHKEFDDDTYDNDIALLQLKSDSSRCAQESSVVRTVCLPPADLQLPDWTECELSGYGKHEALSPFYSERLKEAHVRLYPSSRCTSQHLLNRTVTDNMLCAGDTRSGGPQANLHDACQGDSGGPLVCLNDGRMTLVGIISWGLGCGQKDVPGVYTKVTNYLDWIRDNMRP
UniProt P24821, residues 23-2201: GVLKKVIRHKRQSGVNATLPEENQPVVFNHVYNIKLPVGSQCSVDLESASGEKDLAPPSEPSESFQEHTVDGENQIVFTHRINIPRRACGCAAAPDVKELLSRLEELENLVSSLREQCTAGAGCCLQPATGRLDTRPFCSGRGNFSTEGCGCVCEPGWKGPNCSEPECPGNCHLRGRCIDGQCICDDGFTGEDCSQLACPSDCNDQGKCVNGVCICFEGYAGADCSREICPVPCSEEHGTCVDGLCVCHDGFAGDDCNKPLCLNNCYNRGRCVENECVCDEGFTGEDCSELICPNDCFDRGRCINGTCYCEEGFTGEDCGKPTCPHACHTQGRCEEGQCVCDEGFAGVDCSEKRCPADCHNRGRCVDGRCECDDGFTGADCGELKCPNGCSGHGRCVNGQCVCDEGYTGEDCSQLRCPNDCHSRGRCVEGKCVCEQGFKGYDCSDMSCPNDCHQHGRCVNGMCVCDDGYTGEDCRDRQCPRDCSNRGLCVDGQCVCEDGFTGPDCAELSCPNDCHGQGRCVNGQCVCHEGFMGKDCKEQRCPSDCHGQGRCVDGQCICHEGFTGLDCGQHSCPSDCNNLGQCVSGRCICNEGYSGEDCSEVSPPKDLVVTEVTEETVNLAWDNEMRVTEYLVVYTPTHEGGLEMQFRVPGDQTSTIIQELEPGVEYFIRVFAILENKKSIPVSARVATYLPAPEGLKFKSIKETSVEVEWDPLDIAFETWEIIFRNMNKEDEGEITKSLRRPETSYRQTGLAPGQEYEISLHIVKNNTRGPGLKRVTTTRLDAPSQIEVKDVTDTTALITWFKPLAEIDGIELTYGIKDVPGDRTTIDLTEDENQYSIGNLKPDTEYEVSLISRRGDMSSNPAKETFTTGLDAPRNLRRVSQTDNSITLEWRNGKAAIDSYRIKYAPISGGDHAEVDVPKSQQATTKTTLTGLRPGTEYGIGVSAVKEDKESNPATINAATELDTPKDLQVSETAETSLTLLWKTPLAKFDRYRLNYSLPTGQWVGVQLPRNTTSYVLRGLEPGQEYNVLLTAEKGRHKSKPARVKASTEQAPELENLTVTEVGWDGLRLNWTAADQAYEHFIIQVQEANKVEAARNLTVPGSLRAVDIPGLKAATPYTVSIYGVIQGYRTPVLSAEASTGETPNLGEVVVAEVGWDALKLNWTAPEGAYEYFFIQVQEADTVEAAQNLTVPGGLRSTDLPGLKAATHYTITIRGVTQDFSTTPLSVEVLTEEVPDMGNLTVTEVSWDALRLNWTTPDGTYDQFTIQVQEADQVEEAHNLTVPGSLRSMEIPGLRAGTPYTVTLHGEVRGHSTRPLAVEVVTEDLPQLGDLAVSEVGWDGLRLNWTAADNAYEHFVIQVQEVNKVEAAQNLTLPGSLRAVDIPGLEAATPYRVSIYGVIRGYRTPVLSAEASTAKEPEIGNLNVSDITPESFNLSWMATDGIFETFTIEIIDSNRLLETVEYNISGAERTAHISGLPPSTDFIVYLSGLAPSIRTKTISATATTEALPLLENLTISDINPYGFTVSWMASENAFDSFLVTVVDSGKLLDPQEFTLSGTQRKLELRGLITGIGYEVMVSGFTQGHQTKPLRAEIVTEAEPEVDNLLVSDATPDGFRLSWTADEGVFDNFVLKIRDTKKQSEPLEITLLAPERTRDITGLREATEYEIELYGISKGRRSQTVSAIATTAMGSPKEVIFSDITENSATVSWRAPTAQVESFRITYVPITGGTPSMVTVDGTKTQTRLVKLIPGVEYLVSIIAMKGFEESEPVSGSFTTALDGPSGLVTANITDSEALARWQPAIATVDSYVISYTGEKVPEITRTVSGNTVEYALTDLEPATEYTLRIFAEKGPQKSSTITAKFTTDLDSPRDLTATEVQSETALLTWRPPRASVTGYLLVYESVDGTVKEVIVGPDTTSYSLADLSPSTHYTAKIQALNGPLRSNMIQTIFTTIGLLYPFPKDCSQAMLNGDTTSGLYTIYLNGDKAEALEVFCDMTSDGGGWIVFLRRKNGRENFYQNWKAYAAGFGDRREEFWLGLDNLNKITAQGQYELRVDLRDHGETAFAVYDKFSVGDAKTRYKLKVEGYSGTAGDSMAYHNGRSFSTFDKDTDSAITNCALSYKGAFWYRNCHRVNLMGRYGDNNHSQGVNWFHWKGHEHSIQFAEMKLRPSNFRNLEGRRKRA

Results are given in words; binding and its absence hold for the method and conditions named. Binding seen in cells or lysates may run through a third protein. Some binding calls cover weakened binding; strength is not graded here.

In this assay the target is PLAT (t-PA) (human (endogenous in PC9GR)) (UniProt P00750). The experiment in a line: co-IP; cells lysed in IP lysis buffer 1 h at 4 °C; cleared supernatant rotated with antibodies and protein A beads 4 h at 4 °C; washed four times; antibodies anti-PLAT, anti-ITGB3, anti-TNC, anti-IgG; which protein was precipitated is not told.

On to “Tenascin-C (TNC) (from UniProt P24821 23-2201)”, for which the binding result was “binds”.
